In PMC8854694:
No constants are given. Whether binding was seen depends on the method and setting. Binding seen in cells or lysates may run through a third protein. Some entries that bind do so weakly or less than the wild type.

Amino acid sequences for entries named in this document (tags omitted).
UniProt P55196: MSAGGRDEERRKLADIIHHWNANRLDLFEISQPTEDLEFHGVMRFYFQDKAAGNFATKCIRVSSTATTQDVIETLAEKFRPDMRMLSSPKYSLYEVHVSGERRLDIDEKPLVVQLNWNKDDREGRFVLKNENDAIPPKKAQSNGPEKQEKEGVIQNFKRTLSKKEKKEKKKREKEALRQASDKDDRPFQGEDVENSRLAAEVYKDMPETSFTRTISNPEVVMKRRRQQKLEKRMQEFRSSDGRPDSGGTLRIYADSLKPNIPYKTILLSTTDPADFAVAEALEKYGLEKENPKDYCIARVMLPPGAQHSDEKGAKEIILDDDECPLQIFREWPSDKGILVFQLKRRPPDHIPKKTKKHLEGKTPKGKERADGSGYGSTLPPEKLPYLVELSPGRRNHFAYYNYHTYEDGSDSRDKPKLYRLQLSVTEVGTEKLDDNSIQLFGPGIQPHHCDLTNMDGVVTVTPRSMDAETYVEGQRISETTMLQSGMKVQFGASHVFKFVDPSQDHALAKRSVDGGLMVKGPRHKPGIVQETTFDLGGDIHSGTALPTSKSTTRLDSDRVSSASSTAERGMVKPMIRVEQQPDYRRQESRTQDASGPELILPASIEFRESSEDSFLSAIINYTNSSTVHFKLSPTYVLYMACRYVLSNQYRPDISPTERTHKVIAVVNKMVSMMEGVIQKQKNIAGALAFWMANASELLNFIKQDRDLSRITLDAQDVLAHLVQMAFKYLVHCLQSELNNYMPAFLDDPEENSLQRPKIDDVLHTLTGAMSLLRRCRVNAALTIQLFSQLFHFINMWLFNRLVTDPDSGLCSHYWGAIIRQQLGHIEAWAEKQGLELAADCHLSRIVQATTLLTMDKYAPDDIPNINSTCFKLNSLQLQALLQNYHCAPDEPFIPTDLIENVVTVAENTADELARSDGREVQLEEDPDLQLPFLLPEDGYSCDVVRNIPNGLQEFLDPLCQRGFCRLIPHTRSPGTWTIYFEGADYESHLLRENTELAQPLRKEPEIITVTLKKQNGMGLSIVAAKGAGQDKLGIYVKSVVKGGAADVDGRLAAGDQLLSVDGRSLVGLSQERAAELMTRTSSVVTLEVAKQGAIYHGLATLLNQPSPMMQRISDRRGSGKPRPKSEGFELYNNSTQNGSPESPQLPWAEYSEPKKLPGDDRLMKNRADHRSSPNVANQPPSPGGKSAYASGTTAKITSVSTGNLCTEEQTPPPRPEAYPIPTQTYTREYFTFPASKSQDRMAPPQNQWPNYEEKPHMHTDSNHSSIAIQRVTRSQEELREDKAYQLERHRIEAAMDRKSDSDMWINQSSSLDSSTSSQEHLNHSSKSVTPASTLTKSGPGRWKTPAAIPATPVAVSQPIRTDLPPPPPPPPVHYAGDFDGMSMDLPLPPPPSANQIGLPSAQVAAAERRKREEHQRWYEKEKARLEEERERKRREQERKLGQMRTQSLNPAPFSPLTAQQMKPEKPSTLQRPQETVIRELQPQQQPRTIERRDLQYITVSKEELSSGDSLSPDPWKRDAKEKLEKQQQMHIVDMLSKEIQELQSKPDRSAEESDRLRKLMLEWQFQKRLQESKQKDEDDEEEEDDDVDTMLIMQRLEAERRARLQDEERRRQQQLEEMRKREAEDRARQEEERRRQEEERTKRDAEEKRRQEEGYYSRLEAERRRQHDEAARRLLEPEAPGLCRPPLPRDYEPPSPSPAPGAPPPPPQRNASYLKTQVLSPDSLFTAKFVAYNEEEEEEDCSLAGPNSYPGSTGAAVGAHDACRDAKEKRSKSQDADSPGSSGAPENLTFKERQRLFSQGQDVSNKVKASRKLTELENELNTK

Target: Afadin (human (endogenous in Caco-2)) (UniProt P55196)
Assay: co-IP; endogenous Afadin immunoprecipitated from Caco-2 lysate (about 1 mg; 50 mM Tris-HCl pH 8, 150 mM NaCl, 1 mM EDTA, 1% Triton X-100) with anti-Afadin and protein G Sepharose overnight at 4 °C; ASPP2 detected by immunoblot

B1: ASPP2 (protein, UniProt Q13625 1-1128)
chain: MMPMFLTVYLSNNEQHFTEVPVTPETICRDVVDLCKEPGESDCHLAEVWCGSERPVADNERMFDVLQRFGSQRNEVRFFLRHERPPGRDIVSGPRSQDPSLKRNGVKVPGEYRRKENGVNSPRMDLTLAELQEMASRQQQQIEAQQQLLATKEQRLKFLKQQDQRQQQQVAEQEKLKRLKEIAENQEAKLKKVRALKGHVEQKRLSNGKLVEEIEQMNNLFQQKQRELVLAVSKVEELTRQLEMLKNGRIDSHHDNQSAVAELDRLYKELQLRNKLNQEQNAKLQQQRECLNKRNSEVAVMDKRVNELRDRLWKKKAALQQKENLPVSSDGNLPQQAASAPSRVAAVGPYIQSSTMPRMPSRPELLVKPALPDGSLVIQASEGPMKIQTLPNMRSGAASQTKGSKIHPVGPDWSPSNADLFPSQGSASVPQSTGNALDQVDDGEVPLREKEKKVRPFSMFDAVDQSNAPPSFGTLRKNQSSEDILRDAQVANKNVAKVPPPVPTKPKQINLPYFGQTNQPPSDIKPDGSSQQLSTVVPSMGTKPKPAGQQPRVLLSPSIPSVGQDQTLSPGSKQESPPAAAVRPFTPQPSKDTLLPPFRKPQTVAASSIYSMYTQQQAPGKNFQQAVQSALTKTHTRGPHFSSVYGKPVIAAAQNQQQHPENIYSNSQGKPGSPEPETEPVSSVQENHENERIPRPLSPTKLLPFLSNPYRNQSDADLEALRKKLSNAPRPLKKRSSITEPEGPNGPNIQKLLYQRTTIAAMETISVPSYPSKSASVTASSESPVEIQNPYLHVEPEKEVVSLVPESLSPEDVGNASTENSDMPAPSPGLDYEPEGVPDNSPNLQNNPEEPNPEAPHVLDVYLEEYPPYPPPPYPSGEPEGPGEDSVSMRPPEITGQVSLPPGKRTNLRKTGSERIAHGMRVKFNPLALLLDSSLEGEFDLVQRIIYEVDDPSLPNDEGITALHNAVCAGHTEIVKFLVQFGVNVNAADSDGWTPLHCAASCNNVQVCKFLVESGAAVFAMTYSDMQTAADKCEEMEEGYTQCSQFLYGVQEKMGIMNKGVIYALWDYEPQNDDELPMKEGDCMTIIHREDEDEIEWWWARLNDKEGYVPRNLLGLYPRIKPRQRSLA
  binding: binds
